Test results taken from patent publication US11166928B2, “Migraine prevention and treatment” (UNIVERSITATS-KINDERSPITAL, priority 2016, dated 2021).

System: migraine patients
Assay: Tolerability, adverse events and palatability in the pilot experiments
Format: in vivo, human
Conditions: 26 g daily (13 g twice a day)
Text: (§1) Monthly migraine attack frequency was summarized over the last 3 months and the average was used for baseline comparison. Patients were either instructed to take 26 g LL or 26 g LY in two daily doses (one hour before breakfast and one hour before dinner, respectively) for the duration of 4 weeks. They were instructed to refrain from any other changes in medication or food habits for the duration of that period. The primary outcome measure was changes in days with migraines from baseline. Days with migraine were recorded using a mobile app (myheadache.ch) or a pen and paper diary and averaged across participants.
as §1, with “take 20 g βHB,” for “take”, “They were instructed to refrain from any other changes in medication or food habits for the duration of that period. The primary outcome measure was changes in days with migraines from baseline.” left out
Monthly migraine attack frequency was summarized over the last 3 months and the average was used for baseline comparison. […] Days with migraine were recorded using a mobile app (myheadache.ch) or a pen and paper diary and averaged across participants.

CC(C)C[C@H](N)C(=O)O [LL, L-leucine, reference compound]
Palatability (taste of the powder): intolerable

NCCCC[C@H](N)C(=O)O [LY, L-lysine, reference compound]
Palatability (taste of the powder): intolerable
